{"source": "the supplement of paper PMC3334620", "note": "In all, about 33,000 sequences were measured (“E-score (-0.5 to 0.5)”: median about -0.0034, highest 2% from about 0.25 on). The list shows a part of the results."}
{"target": "T1, Yap3 (UniProt P38749)", "T1 sequence": "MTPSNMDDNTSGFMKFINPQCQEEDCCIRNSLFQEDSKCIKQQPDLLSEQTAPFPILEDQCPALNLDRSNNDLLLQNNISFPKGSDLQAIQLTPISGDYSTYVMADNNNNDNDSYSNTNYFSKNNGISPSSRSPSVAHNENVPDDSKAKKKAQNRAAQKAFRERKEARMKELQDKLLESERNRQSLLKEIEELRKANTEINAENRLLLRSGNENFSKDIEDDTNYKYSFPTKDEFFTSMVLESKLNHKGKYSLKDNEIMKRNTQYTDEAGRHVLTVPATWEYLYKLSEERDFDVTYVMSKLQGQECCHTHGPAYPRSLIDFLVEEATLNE", "test": "PBM E-score (8-mer binding enrichment) (E-score (-0.5 to 0.5)); higher = stronger / more preferred TF binding", "details": "protein concentration: 100 nM; construct: GST-full length", "how_it_was_run": "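Each ungapped eight-base word and its reverse complement, pooled, received an E-score from the Universal PBM Analysis Suite. Underlying scans, normalised with masliner, recorded fluorescent anti-GST bound to GST-tagged yeast transcription factors. These were applied at about 100-200 nM to universal all-10-mer Agilent arrays double-stranded by primer extension.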"}
{"sequence": "AATGAAAT", "PBM E-score": 0.21}
{"sequence": "ACATGATG", "PBM E-score": -0.0314}
{"sequence": "AATTACGG", "PBM E-score": 0.235}
{"sequence": "ATAGAATC", "PBM E-score": -0.0749}
{"sequence": "ACGAGAGA", "PBM E-score": -0.0425}
{"sequence": "AGCTACAA", "PBM E-score": 0.024}
{"sequence": "ATGATGGC", "PBM E-score": -0.00809}
{"sequence": "GATGCTAC", "PBM E-score": 0.135}
{"sequence": "CCCGTGCC", "PBM E-score": -0.271}
{"sequence": "CGATCCCC", "PBM E-score": -0.265}
{"sequence": "AGCGGCCA", "PBM E-score": -0.274}
{"sequence": "AAATCACA", "PBM E-score": 0.0156}
{"sequence": "AAAATAGA", "PBM E-score": 0.256}
{"sequence": "ATTCAGTC", "PBM E-score": -0.0407}
{"sequence": "CAGTTATC", "PBM E-score": -0.18}
{"sequence": "AGTGCTGC", "PBM E-score": -0.185}
{"sequence": "AAAATCTA", "PBM E-score": 0.0549}
{"sequence": "CTATGAGA", "PBM E-score": -0.0545}
{"sequence": "AAACTCTA", "PBM E-score": -0.0385}
{"sequence": "CAGGTTAA", "PBM E-score": 0.142}
{"sequence": "AGTCGGTA", "PBM E-score": -0.113}
{"sequence": "ATTGCGAA", "PBM E-score": -0.0182}
{"sequence": "AACCCAGG", "PBM E-score": -0.138}
{"sequence": "GGTGGTAA", "PBM E-score": 0.0583}
{"sequence": "ATCATGCC", "PBM E-score": 0.0975}
{"sequence": "TGGAAGAA", "PBM E-score": 0.0735}
{"sequence": "ACTCTACC", "PBM E-score": 0.0336}
{"sequence": "AGGAGAGA", "PBM E-score": -0.0656}
{"sequence": "CAAAAGTG", "PBM E-score": 0.0317}
{"sequence": "CGCTGTCC", "PBM E-score": 0.0161}
{"sequence": "GAGACTCC", "PBM E-score": -0.0962}
{"sequence": "GTCCACTA", "PBM E-score": -0.0727}
{"sequence": "AGTAAAAG", "PBM E-score": 0.108}
{"sequence": "AAAGAGTG", "PBM E-score": -0.0322}
{"sequence": "CACTGCGC", "PBM E-score": -0.114}
{"sequence": "CGAAAGTC", "PBM E-score": -0.105}
{"sequence": "GTCAAGTA", "PBM E-score": -0.12}
{"sequence": "GTGAGTCA", "PBM E-score": 0.00151}
{"sequence": "ATTAGTGA", "PBM E-score": 0.179}
{"sequence": "CATAACCA", "PBM E-score": 0.0668}
{"sequence": "AGCATTGG", "PBM E-score": 0.0112}
{"sequence": "AGCCTCGC", "PBM E-score": -0.132}
{"sequence": "AACGAGTC", "PBM E-score": -0.0938}
{"sequence": "GTAAGAAA", "PBM E-score": 0.101}
{"sequence": "CATCCACC", "PBM E-score": 0.064}
{"sequence": "CCAGACCG", "PBM E-score": -0.105}
{"sequence": "AAAGTACT", "PBM E-score": -0.133}
{"sequence": "CCCACAGC", "PBM E-score": -0.117}
{"sequence": "AGCCCGGC", "PBM E-score": -0.249}
{"sequence": "TCCCATCA", "PBM E-score": -0.0655}
{"sequence": "AAAGCGTC", "PBM E-score": -0.114}
{"sequence": "ACCATGTG", "PBM E-score": 0.0753}
{"sequence": "ATAATTAG", "PBM E-score": 0.347}
{"sequence": "GGCATGTA", "PBM E-score": -0.00875}
{"sequence": "TATGGTAA", "PBM E-score": 0.124}
{"sequence": "GTACAAAC", "PBM E-score": 0.0838}
{"sequence": "GCGTGGAA", "PBM E-score": 0.0149}
{"sequence": "GAGCGAAC", "PBM E-score": -0.103}
{"sequence": "CGGTATGA", "PBM E-score": 0.14}
{"sequence": "GAGCGTCA", "PBM E-score": -0.102}
{"sequence": "ATATCTCG", "PBM E-score": 0.0271}
{"sequence": "CATGCGTC", "PBM E-score": -0.151}
{"sequence": "AGCCGAGC", "PBM E-score": -0.0255}
{"sequence": "AGCGAGTG", "PBM E-score": -0.00138}
{"sequence": "AATGAAAG", "PBM E-score": 0.156}
{"sequence": "AAGAGTCA", "PBM E-score": 0.0394}
{"sequence": "ATAACACC", "PBM E-score": 0.158}
{"sequence": "GTGTGCTA", "PBM E-score": 0.0286}
{"sequence": "TCAATACA", "PBM E-score": 0.162}
{"sequence": "GCCGTGAA", "PBM E-score": -0.0965}
{"sequence": "TGGCGCAA", "PBM E-score": -0.00773}
{"sequence": "ATTAACTC", "PBM E-score": 0.193}
{"sequence": "AGAGCACC", "PBM E-score": -0.168}
{"sequence": "AGTCGACG", "PBM E-score": 0.23}
{"sequence": "GGGTGAAA", "PBM E-score": 0.0598}
{"sequence": "AGATTAAG", "PBM E-score": 0.114}
{"sequence": "AGGGTAGC", "PBM E-score": -0.136}
{"sequence": "GGTGTCTA", "PBM E-score": -0.0438}
{"sequence": "GCACGTCC", "PBM E-score": -0.00927}
{"sequence": "ATCCTCGC", "PBM E-score": -0.0454}
{"sequence": "CGCGCGCA", "PBM E-score": 0.156}
{"sequence": "CACCCCGA", "PBM E-score": -0.166}
{"sequence": "AACGGGAC", "PBM E-score": -0.053}
{"sequence": "TGTTCTAA", "PBM E-score": 0.256}
{"sequence": "CGTACGGA", "PBM E-score": 0.189}
{"sequence": "ACTATACC", "PBM E-score": 0.0405}
